Experimental data as given in article PMC6523986.
No constants are given. Whether binding was seen depends on the method and setting. Binding seen in cells or lysates may run through a third protein. Some entries that bind do so weakly or less than the wild type.

By UniProt entry, the sequences of proteins in these tests, tags left out.
UniProt P29350: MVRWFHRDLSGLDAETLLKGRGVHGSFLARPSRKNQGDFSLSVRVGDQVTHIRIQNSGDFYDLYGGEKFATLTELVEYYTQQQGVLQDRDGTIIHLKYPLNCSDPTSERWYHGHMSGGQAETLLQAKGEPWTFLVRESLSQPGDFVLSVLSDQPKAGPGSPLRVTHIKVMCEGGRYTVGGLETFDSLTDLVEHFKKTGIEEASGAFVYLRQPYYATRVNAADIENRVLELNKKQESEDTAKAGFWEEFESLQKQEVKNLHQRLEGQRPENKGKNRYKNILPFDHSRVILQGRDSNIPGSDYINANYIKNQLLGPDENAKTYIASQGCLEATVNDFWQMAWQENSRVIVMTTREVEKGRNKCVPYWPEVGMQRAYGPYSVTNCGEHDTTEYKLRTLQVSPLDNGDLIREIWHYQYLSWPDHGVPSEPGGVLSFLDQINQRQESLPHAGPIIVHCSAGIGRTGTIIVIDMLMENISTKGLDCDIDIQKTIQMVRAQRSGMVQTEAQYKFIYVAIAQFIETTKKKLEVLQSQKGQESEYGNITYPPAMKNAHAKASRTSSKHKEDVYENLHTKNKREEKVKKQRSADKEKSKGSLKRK
UniProt Q9D4F8: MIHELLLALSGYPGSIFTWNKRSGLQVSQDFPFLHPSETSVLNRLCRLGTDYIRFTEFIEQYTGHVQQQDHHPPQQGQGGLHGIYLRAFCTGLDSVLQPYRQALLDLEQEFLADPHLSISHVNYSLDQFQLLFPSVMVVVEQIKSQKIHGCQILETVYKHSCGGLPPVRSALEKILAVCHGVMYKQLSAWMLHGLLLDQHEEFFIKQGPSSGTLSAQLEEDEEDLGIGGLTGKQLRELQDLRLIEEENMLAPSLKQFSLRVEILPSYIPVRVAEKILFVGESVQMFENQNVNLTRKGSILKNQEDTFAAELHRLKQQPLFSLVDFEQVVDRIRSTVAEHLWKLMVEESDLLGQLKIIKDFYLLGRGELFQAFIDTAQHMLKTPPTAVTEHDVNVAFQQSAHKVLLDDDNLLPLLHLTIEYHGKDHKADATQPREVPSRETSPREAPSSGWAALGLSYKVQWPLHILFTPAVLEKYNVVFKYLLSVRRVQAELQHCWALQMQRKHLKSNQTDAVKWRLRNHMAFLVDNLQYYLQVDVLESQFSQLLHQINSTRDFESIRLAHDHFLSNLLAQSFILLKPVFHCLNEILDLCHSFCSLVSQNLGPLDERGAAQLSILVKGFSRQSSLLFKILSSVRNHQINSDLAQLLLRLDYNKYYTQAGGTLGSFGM
UniProt P29351: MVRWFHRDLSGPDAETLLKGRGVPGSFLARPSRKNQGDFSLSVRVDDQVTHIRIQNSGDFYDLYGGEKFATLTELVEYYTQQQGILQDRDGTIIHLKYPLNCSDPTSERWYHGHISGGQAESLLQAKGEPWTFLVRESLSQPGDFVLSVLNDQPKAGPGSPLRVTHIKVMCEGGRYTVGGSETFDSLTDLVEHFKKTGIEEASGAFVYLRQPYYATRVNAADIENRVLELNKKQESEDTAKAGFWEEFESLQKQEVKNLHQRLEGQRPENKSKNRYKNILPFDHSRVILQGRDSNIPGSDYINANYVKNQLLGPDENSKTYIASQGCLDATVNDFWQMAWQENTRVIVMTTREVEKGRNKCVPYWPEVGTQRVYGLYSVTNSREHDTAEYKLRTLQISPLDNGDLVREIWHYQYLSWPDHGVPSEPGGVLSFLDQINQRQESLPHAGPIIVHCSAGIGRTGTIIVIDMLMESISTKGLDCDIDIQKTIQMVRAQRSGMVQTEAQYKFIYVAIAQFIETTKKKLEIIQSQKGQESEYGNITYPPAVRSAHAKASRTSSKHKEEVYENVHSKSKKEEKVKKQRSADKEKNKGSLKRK
UniProt Q921G8: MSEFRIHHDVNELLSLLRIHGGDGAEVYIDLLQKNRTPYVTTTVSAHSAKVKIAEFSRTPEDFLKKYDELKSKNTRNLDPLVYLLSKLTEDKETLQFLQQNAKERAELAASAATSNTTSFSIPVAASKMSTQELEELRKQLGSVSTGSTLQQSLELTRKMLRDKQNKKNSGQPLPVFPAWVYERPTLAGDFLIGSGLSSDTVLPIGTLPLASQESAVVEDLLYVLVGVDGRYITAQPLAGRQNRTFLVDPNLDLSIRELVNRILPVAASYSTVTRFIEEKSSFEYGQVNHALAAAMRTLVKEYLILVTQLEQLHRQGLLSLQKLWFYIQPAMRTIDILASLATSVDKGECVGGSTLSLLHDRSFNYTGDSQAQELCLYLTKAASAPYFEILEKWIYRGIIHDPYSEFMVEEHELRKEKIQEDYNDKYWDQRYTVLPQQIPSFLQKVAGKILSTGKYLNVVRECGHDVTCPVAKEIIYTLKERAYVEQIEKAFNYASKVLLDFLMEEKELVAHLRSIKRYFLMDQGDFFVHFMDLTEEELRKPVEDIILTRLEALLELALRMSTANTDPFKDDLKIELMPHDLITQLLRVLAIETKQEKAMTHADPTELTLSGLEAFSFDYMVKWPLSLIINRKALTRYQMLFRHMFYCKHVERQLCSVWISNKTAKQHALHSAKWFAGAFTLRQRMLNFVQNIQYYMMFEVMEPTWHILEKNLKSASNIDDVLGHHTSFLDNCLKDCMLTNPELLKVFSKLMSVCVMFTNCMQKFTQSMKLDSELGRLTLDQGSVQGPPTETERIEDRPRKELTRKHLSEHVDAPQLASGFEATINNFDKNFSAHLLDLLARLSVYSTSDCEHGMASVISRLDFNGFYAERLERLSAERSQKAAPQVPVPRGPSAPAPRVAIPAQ
UniProt P58854: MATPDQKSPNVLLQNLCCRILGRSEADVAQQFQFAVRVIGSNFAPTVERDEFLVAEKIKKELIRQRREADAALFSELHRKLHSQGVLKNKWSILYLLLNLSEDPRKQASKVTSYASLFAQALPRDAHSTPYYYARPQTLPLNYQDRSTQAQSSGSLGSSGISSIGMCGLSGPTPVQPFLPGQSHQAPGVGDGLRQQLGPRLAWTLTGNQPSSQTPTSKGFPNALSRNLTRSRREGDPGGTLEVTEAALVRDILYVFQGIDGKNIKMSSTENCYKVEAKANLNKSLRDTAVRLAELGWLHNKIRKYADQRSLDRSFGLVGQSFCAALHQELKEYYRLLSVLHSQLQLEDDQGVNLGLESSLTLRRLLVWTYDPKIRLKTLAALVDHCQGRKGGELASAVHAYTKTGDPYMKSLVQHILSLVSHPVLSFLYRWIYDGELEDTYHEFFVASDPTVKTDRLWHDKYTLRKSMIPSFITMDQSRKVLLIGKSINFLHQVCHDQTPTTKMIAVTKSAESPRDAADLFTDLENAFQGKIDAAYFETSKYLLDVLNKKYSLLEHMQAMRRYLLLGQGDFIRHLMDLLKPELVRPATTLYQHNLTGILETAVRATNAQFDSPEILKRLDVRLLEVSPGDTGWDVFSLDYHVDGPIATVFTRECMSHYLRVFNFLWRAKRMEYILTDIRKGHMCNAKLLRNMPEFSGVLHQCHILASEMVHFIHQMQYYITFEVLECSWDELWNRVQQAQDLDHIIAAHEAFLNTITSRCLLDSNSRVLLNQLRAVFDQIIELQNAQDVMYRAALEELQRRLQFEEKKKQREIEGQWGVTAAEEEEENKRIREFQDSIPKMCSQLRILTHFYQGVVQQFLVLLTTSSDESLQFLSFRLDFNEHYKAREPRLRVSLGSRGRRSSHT
UniProt Q8BKN5: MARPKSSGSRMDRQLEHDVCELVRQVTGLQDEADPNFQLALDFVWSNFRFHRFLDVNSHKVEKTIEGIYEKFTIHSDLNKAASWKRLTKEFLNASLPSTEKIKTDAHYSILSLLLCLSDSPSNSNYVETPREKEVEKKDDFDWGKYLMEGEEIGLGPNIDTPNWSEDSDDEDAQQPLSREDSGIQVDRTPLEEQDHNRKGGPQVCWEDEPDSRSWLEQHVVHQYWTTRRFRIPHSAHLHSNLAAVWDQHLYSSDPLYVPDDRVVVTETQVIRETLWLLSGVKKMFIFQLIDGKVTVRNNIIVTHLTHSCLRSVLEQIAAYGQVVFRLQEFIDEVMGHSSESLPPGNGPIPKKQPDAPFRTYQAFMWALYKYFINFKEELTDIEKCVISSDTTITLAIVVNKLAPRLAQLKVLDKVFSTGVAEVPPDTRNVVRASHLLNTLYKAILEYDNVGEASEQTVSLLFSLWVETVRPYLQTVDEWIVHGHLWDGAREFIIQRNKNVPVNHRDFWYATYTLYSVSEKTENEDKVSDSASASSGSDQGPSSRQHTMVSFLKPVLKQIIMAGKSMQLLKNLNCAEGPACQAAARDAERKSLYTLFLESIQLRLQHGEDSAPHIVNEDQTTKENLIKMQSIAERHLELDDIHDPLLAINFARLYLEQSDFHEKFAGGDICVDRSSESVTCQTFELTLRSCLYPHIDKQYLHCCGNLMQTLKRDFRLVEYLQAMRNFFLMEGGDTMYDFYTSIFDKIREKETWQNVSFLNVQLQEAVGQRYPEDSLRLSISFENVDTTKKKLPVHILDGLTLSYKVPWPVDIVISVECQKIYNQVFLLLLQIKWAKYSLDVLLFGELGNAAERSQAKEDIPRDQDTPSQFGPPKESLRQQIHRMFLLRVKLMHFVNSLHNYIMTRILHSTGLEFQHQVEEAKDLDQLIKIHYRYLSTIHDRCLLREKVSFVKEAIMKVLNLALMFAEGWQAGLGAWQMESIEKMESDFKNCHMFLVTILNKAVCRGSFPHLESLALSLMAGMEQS
UniProt G5E8P0: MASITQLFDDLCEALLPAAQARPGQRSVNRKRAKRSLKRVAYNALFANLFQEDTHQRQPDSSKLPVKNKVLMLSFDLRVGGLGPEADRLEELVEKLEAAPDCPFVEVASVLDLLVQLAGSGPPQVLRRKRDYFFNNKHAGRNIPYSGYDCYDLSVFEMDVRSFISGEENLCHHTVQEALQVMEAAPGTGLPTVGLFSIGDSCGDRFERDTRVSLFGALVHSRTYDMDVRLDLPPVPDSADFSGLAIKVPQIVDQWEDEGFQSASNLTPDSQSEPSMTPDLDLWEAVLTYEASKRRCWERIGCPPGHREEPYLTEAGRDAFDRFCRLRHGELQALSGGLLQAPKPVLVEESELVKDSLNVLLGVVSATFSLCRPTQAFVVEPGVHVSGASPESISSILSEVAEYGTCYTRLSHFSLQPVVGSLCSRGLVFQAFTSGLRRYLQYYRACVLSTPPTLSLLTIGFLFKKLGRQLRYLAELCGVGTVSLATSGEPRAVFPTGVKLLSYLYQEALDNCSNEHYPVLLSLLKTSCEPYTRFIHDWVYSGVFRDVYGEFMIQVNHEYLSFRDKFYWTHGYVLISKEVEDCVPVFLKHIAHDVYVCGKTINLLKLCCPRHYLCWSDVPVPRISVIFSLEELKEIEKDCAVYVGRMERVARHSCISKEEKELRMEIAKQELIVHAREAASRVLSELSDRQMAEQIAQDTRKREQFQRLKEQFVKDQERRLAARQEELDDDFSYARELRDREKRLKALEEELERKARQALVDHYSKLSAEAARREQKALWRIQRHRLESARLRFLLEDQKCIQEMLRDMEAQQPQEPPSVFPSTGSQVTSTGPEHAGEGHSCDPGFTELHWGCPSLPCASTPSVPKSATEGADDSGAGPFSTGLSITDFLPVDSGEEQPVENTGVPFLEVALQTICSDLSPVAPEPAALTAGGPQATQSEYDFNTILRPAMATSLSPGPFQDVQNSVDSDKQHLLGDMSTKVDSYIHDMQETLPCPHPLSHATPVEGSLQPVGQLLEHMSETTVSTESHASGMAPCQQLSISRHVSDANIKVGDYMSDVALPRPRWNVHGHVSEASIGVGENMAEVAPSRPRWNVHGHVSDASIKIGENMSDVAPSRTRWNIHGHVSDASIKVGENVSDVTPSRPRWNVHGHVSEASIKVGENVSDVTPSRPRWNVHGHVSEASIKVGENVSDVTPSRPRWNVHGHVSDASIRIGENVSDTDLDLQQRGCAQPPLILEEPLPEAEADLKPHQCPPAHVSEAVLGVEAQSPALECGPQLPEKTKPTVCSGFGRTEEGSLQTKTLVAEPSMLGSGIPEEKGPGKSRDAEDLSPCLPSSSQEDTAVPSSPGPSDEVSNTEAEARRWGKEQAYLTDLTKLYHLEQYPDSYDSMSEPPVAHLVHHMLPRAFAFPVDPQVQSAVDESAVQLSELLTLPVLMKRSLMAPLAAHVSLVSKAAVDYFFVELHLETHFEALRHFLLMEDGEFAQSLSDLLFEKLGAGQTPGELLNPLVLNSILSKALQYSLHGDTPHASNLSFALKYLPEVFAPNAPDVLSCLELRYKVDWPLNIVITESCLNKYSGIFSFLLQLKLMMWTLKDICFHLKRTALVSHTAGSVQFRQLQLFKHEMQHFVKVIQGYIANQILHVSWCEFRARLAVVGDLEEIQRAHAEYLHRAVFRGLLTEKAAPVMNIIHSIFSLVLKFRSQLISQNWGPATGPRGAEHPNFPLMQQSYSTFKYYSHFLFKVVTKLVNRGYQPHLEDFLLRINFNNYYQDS

How the values were obtained:
[1] = target: SHP-1 (MCF7 cells) (human (endogenous in MCF7)) (UniProt P29350); test: co-IP; MCF7 extracts precipitated with antibody to SHP-1 or to γ-tubulin, immunoblot
[2] = target: GCP4 (γ-tubulin complex protein 4; BMMCs) (mouse (endogenous in BMMCs)) (UniProt Q9D4F8); test: co-IP; BMMC extracts (HEPES buffer with 1% NP-40, protease inhibitors) incubated with antibodies immobilised on protein A or protein G beads, immunoblot; in Figure 9B cells nonactivated or antigen-activated (3 min, 10 min)
[3] = target: Src homology 2 (SH2) domain-containing protein tyrosine phosphatase 1 (SHP-1; Ptpn6) (mouse (endogenous in BMMCs)) (UniProt P29351); test: as above
[4] = target: GCP2 (γ-tubulin complex protein 2; BMMCs) (mouse (endogenous in BMMCs)) (UniProt Q921G8); test: as above

GCP2 (MCF7 cells) (from UniProt Q9BSJ2 1-902)
binding [1]: binds

GCP2 (γ-tubulin complex protein 2; BMMCs) (from UniProt Q921G8 1-905)
binding [2]: binds
binding [3]: binds

GCP3 (γ-tubulin complex protein 3; BMMCs) (from UniProt P58854 1-905)
binding [3]: binds

GCP4 (γ-tubulin complex protein 4; BMMCs) (from UniProt Q9D4F8 1-667)
binding [4]: binds
binding [3]: binds

GCP5 (γ-tubulin complex protein 5; BMMCs) (from UniProt Q8BKN5 1-1024)
binding [3]: binds

GCP6 (γ-tubulin complex protein 6; BMMCs) (from UniProt G5E8P0 1-1769)
binding [3]: binds

GCP-4 (MCF7 cells) (from UniProt Q9UGJ1 1-667)
binding [1]: binds

Src homology 2 (SH2) domain-containing protein tyrosine phosphatase 1 (SHP-1; Ptpn6) (from UniProt P29351 1-595) (enzyme)
binding [4]: binds
binding [2]: binds
